Test results as given in paper PMC8488606.
No constants are given. Whether binding was seen depends on the method and setting. In cells and extracts the contact can be indirect. A yes stands for co-enrichment or nearness to the bait. Other partners may have been found.

The chains behind the UniProt entries cited, without tags or fusion partners.
UniProt A0A068C8U8: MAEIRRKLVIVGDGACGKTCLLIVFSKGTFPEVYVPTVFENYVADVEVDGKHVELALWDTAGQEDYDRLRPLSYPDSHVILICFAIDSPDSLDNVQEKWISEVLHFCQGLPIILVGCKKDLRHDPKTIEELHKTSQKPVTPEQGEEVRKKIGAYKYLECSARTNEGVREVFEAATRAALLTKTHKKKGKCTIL

Biological target: GFP-tagged AfRom2 CNH domain expressed in A. fumigatus (gpd-gfp-rom2 (2725-3792)) (Aspergillus fumigatus) (UniProt Q4WUI2)
Assay: affinity purification with mass spectrometry; GFP-Trap resin with lysate of the A. fumigatus strain expressing gpd-gfp-cnh, gpd-gfp strain as control; washes with 350 mM NaCl; eluted proteins analysed by LC-MS

binding: binds
Substance: Rho1 (endogenous, A. fumigatus) (from UniProt A0A068C8U8 1-193)
